Laboratory results: PubChem BioAssay AID1159578 (Peter MacCallum Cancer Centre, 2015)
Screen: 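Knock-downs that alter how fast lymphatic endothelial cells migrate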 (primary screen). Cells: human lymphatic endothelial cells. Reagent: siRNA pool against human genes, 40 nM. Timing: 48 h after transfection. Measurement: 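Cells stained with dye and imaged after a scratch; covered wound area and nuclei counted, duplicates averaged, migration set against mock wells and turned into a robust z-score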. Scale: migration robust z-score: higher = faster migration into the scratch; nuclei per well: higher = more cells in the well. Call rule: 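Migration changed when robust z exceeds 2 or falls below -2 and mean nuclei number is at least 3300; otherwise not called changed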. Meaning of the calls: active = migration changed; inactive = no migration change, or too few cells.
In all, the deposit lists about 18,000 reagents; shown is an unselected part. Of all reagents, about 1,030 (5.7%) got an active call. 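Inactive calls also include pools with fewer than 3300 nuclei, whose migration was not assessed.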 Raw values vary from plate to plate and are shown uncorrected. Not all columns of the deposit are shown. Reagent sequences are not shown.

For SYT9 (GeneID 143425), what was measured?
migration robust z-score: -0.9; migration class with cell-count check: migration z between -2 and 2; enough cells; nuclei per well, duplicate mean: 5006; outcome: inactive

For TIPRL (GeneID 261726), how do the results read?
migration robust z-score: -0.19; migration class with cell-count check: migration z between -2 and 2; enough cells; nuclei per well, duplicate mean: 4686; outcome: inactive

How did the screen score UNC80 (GeneID 285175)?
migration robust z-score: -1.06; migration class with cell-count check: migration z between -2 and 2; enough cells; nuclei per well, duplicate mean: 5012; outcome: inactive

For SCIN (GeneID 85477), how do the results read?
migration robust z-score: 2.38; migration class with cell-count check: migration z above 2; enough cells; nuclei per well, duplicate mean: 6160; outcome: active

What did the screen give for PIF1 (GeneID 80119)?
migration robust z-score: -0.36; migration class with cell-count check: migration z between -2 and 2; enough cells; nuclei per well, duplicate mean: 5589; outcome: inactive

For LGALS9C (GeneID 654346), how do the results read?
migration robust z-score: 0.38; migration class with cell-count check: migration z between -2 and 2; enough cells; nuclei per well, duplicate mean: 5972; outcome: inactive

Which result is listed for SERPIND1 (GeneID 3053)?
migration robust z-score: -1.22; migration class with cell-count check: migration z between -2 and 2; enough cells; nuclei per well, duplicate mean: 4632; outcome: inactive

What did the screen give for SSB (GeneID 6741)?
migration robust z-score: -0.56; migration class with cell-count check: migration z between -2 and 2; enough cells; nuclei per well, duplicate mean: 5542; outcome: inactive

For DKK1 (GeneID 22943), how do the results read?
migration robust z-score: -0.81; migration class with cell-count check: migration z between -2 and 2; enough cells; nuclei per well, duplicate mean: 5480; outcome: inactive

For CLIC2 (GeneID 1193), what was measured?
migration robust z-score: 0.78; migration class with cell-count check: migration z between -2 and 2; enough cells; nuclei per well, duplicate mean: 5376; outcome: inactive

With ATF3 (GeneID 467), how do the results read?
migration robust z-score: 0.44; migration class with cell-count check: migration z between -2 and 2; enough cells; nuclei per well, duplicate mean: 5858; outcome: inactive

For ZDHHC14 (GeneID 79683), how do the results read?
migration robust z-score: 1.34; migration class with cell-count check: migration z between -2 and 2; enough cells; nuclei per well, duplicate mean: 6164; outcome: inactive

Entries listed so far called active (1):
SCIN (GeneID 85477) | migration robust z-score: 2.38; migration class with cell-count check: migration z above 2; enough cells; nuclei per well, duplicate mean: 6160; outcome: active

The listing continues.
With RNF220 (GeneID 55182), how do the results read?
migration robust z-score: 0.55; migration class with cell-count check: migration z between -2 and 2; enough cells; nuclei per well, duplicate mean: 6070; outcome: inactive

What did the screen give for TYRP1 (GeneID 7306)?
migration robust z-score: 1.02; migration class with cell-count check: migration z between -2 and 2; enough cells; nuclei per well, duplicate mean: 6266; outcome: inactive

How did the screen score FGD4 (GeneID 121512)?
migration robust z-score: 0.53; migration class with cell-count check: migration z between -2 and 2; enough cells; nuclei per well, duplicate mean: 5346; outcome: inactive

What is on record for DYRK1A (GeneID 1859)?
migration robust z-score: -0.36; migration class with cell-count check: migration z between -2 and 2; enough cells; nuclei per well, duplicate mean: 6475; outcome: inactive

Which result is listed for ANO7 (GeneID 50636)?
migration robust z-score: 1.32; migration class with cell-count check: migration z between -2 and 2; enough cells; nuclei per well, duplicate mean: 6191; outcome: inactive

For OXSM (GeneID 54995), what was measured?
migration robust z-score: -0.54; migration class with cell-count check: migration z between -2 and 2; enough cells; nuclei per well, duplicate mean: 6465; outcome: inactive

With OR4K14 (GeneID 122740), what does the deposit list?
migration robust z-score: -1.09; migration class with cell-count check: migration z between -2 and 2; enough cells; nuclei per well, duplicate mean: 5496; outcome: inactive

With CD164L2 (GeneID 388611), what does the deposit list?
migration robust z-score: -0.1; migration class with cell-count check: migration z between -2 and 2; enough cells; nuclei per well, duplicate mean: 6127; outcome: inactive

For ME3 (GeneID 10873), how do the results read?
migration robust z-score: -0.29; migration class with cell-count check: migration z between -2 and 2; enough cells; nuclei per well, duplicate mean: 5278; outcome: inactive
